{"sequences": {"note": "Sequences of proteins named here, by UniProt entry; tags and fusion partners are left off.", "UniProt P60335": "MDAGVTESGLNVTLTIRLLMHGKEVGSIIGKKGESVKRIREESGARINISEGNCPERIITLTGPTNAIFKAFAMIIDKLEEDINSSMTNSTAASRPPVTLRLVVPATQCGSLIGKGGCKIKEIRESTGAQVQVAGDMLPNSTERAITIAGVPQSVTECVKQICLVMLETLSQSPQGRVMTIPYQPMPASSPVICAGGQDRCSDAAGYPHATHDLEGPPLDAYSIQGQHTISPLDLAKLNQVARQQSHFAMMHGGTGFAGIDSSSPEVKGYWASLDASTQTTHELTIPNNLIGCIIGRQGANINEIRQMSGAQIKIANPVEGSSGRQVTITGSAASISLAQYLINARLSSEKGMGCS", "UniProt O35286": "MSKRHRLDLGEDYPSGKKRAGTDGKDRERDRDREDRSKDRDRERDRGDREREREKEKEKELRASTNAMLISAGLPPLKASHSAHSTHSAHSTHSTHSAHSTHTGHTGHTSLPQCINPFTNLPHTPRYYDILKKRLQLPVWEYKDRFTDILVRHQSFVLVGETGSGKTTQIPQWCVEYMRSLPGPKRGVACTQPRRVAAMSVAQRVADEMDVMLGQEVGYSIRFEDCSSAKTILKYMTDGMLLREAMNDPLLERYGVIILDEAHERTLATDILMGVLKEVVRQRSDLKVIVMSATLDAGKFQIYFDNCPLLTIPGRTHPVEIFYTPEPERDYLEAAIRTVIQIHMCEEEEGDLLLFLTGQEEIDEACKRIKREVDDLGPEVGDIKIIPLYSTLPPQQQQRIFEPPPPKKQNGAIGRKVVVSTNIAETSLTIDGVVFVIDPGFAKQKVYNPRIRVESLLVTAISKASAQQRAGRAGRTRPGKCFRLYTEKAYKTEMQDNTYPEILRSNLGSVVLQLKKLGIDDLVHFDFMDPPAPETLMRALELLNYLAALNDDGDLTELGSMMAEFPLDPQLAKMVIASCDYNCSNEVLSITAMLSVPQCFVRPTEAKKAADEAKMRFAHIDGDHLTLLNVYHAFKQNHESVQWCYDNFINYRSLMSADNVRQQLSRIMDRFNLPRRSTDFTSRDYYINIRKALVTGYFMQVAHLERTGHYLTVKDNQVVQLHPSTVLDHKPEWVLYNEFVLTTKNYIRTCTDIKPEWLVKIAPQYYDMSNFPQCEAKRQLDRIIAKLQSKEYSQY", "UniProt O70133": "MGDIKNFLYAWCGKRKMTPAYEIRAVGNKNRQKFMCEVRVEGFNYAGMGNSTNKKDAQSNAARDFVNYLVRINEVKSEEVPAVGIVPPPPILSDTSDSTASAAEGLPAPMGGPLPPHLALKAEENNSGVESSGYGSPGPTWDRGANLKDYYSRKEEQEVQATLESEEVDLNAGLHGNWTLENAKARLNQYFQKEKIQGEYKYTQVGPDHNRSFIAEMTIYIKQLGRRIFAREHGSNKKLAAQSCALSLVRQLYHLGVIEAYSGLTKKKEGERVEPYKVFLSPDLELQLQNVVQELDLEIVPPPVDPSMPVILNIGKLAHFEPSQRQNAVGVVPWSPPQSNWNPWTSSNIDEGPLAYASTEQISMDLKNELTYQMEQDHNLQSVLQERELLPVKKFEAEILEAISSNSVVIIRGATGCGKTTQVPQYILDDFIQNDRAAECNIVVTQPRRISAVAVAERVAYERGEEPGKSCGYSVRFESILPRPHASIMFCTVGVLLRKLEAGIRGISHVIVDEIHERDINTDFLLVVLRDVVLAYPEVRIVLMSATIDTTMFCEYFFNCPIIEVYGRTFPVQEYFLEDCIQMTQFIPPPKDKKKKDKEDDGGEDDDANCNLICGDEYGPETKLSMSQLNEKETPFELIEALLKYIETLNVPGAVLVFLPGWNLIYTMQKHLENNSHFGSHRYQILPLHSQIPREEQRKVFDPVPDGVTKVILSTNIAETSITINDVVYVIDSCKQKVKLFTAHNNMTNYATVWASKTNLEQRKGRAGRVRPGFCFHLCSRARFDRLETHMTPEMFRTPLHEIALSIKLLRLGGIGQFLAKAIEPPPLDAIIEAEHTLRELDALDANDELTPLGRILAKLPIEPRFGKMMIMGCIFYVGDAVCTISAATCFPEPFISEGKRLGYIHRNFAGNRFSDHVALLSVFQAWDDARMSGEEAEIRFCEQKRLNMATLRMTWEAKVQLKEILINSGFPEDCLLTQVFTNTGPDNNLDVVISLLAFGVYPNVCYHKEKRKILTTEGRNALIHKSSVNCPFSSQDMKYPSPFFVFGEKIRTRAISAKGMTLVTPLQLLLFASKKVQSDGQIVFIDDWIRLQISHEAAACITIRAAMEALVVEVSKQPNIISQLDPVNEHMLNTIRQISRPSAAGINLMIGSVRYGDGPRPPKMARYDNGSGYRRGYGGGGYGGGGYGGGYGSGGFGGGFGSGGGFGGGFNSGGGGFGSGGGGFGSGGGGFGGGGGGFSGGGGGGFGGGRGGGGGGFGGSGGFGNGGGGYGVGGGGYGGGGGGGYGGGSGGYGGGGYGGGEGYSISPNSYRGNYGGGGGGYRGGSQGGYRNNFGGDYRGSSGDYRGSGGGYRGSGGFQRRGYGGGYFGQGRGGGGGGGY"}, "source": "paper PMC11538862", "molecules": {"B1": {"name": "DDX21, mouse (protein, UniProt Q9JIK5 1-851)", "chain": "MPGKLRSGAKLGSDGAEESMETLPKPSEKKTRKEKTKSKTEEATEGMEEAVSSKAKKTNKKGPSEDDVDPPKSRKAKKQEEEPQDDTASTSKTSKKKKEPLEKQADSETKEIITEEPSEEEADMPKPKKMKKGKEANGDAGEKSPKLKNGLSQPSEEEADIPKPKKMKKGKEANGDAGEKSPKLKNGLSQPSEEEVDIPKPKKMKKGKEASGDAGEKSPRLKDGLSQPSEPKSNSSDAPGEESSSETEKEIPVEQKEGAFSNFPISEETVKLLKARGVNFLFPIQAKTFHHVYSGKDLIAQARTGTGKTFSFAIPLIEKLQGGLQERKRGRAPQVLVLAPTRELANQVSKDFSDITKKLSVACFYGGTPYGGQIERMRSGIDILVGTPGRIKDHLQNGKLDLTKLKHVVLDEVDQMLDMGFADQVEEILCVAYKKDSEDNPQTLLFSATCPHWVFNVAKKYMKSTYEQVDLIGKKTQKAAITVEHLAIKCHWTERAAVIGDVIRVYSGHQGRTIIFCETKKDAQELSQNTCIKQDAQSLHGDIPQKQREITLKGFRNGNFGVLVATNVAARGLDIPEVDLVVQSCPPKDVESYIHRSGRTGRAGRTGVCICFYQNKEEYQLAQVEQKAGIKFKRIGVPSATEIIKASSKDAIRLLDSVPPTAISHFKQSAEKLIEEKGAVEALAAALAHISGATSVDQRSLINSQAGFVTMILRCSIEMPNISYAWKELKEQLGESIDAKVKGMVFLKGKLGVCFDVRTEAVTEIQEKWHDSRRWQLTVATEQPELEGPPDGYRGRMGQRDGSRGAFRGQRGGSRNFRGQGQRGGSRNFRGQRPGGGNRGQKRSFSKAFGQ"}, "B2": {"name": "DHX36, mouse (protein, UniProt Q8VHK9 1-1001)", "chain": "MSYDYHQSWSRDGGPRGSGQGSSGGGGGGSRGSGGGGGGRGGRGRHPAHLKGREIGLWYAKKQTQKNKEAERQERAVVHMDERREEQIVQLLNSVQAKTDKDSEAQISWFAPEDHGYGTEVSSEKKINSEKKLDNQEKKLLNQEKKTFRITDKSYIDRDSEYLLQENEPNLSLDQHLLEDLQRKKTDPRYIEMQRFRKKLPSYGMQKELVNLINNHQVTVISGETGCGKTTQVTQFILDNYIERGKGSACRIVCTQPRRISAISVAERVATERAESCGNGNSTGYQIRLQSRLPRKQGSILYCTTGIILQWLQSDSRLSSVSHIVLDEIHERNLQSDVLMTVIKDLLHFRSDLKVILMSATLNAEKFSEYFGNCPMIHIPGFTFPVVEYLLEDIIEKIRYVPDQKEHRSQFKRGFMQGHVNRQEKEEKEAIYKERWPAYIKELRTRYSASTVDVLQMMDDDKVDLNLIAALIRYIVLEEEDGAILVFLPGWDNISTLHDLLMSQVMFKSDKFLIIPLHSLMPTVNQTQVFKKTPPGVRKIVIATNIAETSITIDDVVYVIDGGKIKETHFDTQNNISTMSAEWVSKANAKQRKGRAGRVQPGHCYHLYNGLRASLLDDYQLPEILRTPLEELCLQIKILRLGGIAYFLSRLMDPPSNEAVVLSIKHLMELSALDKQEELTPLGVHLARLPVEPHIGKMILFGALFCCLDPVLTIAASLSFKDPFVIPLGKEKIADARRKELAKETRSDHLTVVNAFEGWEEAKRRGFRYEKDYCWEYFLSSNTLQMLHNMKGQFAEHLLGAGFVSSRSPKDPKANINSDNEKIIKAVICAGLYPKVAKIRLNLGKKRKMVKVHTKSDGLVSIHPKSVNVEQTDFHYNWLIYHLKMRTSSIYLYDCTEVSPYCLLFFGGDISIQKDKDQEIIAVDEWIVFQSPERIAHLVKGLRKELDSLLQEKIESPHPVDWDDTKSRDCAVLSAILDLIKTQEKATPRNLPPRSQDGYYS"}}, "target": "V5-tagged PCBP1 (UniProt P60335)", "assay": "affinity purification with mass spectrometry; V5 immunoprecipitation from NMuMG shCTR and shPCBP1 cells transiently expressing V5-PCBP1, against V5-control; gel fragments analysed by mass spectrometry", "note": "These are yes or no findings as the source states them, for the method shown. Binding seen in cells or lysates may run through a third protein. These calls come from enrichment with a bait or labelling near it, and not all partners need be listed."}
{"molecule": "DHX15, mouse (from UniProt O35286 1-795)", "values": [{"measurement": "binding", "result": "binds"}]}
{"molecule": "RNA Helicase A (DHX9), mouse (from UniProt O70133 1-1380)", "values": [{"measurement": "binding", "result": "binds"}]}
{"molecule": "B1", "values": [{"measurement": "binding", "result": "binds"}]}
{"molecule": "B2", "values": [{"measurement": "binding", "result": "binds"}]}
